Test results as given in the supplement of paper PMC12595434, “Development of retinoid nuclear receptor pathway antagonists through targeting aldehyde dehydrogenase 1A3” (iScience, 2025).
The list shows a part of the results. This is a noisy data set.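 Many melting curves are irregular; where none melted, Tm was taken as 64 °C.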

By UniProt entry, the sequences of proteins in these tests, tags left out. Where a name states a change or a piece, a line headed by the entry shows the natural chain unless it says otherwise.
UniProt Q9Y5W7: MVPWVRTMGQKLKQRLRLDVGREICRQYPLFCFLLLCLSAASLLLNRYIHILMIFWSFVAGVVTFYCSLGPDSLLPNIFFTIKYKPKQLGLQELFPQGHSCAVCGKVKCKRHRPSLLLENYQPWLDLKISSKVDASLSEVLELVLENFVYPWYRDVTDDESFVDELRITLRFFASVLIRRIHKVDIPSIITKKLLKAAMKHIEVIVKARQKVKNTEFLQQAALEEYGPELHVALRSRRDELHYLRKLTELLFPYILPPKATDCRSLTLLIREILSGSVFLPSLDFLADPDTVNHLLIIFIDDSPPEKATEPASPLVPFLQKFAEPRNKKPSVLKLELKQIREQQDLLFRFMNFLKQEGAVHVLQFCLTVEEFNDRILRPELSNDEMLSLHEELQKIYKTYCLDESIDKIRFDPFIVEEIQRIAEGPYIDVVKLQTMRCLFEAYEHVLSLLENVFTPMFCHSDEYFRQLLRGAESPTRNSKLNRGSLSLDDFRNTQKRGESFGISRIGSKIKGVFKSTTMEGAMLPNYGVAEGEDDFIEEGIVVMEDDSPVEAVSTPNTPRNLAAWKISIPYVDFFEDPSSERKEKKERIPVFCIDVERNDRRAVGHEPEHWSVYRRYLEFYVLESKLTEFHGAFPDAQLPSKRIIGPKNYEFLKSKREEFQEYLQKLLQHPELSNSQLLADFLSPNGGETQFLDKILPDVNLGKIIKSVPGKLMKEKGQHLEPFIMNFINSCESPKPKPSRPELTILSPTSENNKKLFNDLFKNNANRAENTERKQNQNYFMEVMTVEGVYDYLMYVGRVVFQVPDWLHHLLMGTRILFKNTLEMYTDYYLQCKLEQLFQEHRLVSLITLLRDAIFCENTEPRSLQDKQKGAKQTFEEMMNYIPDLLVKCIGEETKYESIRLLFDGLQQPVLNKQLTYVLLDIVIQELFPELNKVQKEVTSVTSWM
UniProt Q9Y5Q9: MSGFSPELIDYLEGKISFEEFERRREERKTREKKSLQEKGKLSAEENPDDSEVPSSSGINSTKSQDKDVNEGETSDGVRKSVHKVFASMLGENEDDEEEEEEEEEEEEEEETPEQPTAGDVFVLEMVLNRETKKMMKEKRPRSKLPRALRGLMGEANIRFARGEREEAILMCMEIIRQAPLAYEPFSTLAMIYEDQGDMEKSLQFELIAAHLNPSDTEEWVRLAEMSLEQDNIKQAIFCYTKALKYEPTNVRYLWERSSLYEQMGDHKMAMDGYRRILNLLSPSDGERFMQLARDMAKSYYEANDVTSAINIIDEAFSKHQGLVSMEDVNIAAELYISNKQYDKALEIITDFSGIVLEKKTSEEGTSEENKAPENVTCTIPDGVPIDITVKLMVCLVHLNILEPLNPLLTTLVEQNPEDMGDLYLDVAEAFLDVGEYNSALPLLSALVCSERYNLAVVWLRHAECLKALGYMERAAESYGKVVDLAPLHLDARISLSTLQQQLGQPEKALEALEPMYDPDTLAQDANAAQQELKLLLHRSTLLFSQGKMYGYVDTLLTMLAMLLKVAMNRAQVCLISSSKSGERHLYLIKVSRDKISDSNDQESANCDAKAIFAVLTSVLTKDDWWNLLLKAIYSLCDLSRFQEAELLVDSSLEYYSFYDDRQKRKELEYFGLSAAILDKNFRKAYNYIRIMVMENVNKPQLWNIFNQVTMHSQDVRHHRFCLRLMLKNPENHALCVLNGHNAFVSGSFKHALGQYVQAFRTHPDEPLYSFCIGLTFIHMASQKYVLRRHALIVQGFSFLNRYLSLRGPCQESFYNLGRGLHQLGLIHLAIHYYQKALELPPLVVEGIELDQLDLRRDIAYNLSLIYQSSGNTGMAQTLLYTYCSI
UniProt Q9Y2I8: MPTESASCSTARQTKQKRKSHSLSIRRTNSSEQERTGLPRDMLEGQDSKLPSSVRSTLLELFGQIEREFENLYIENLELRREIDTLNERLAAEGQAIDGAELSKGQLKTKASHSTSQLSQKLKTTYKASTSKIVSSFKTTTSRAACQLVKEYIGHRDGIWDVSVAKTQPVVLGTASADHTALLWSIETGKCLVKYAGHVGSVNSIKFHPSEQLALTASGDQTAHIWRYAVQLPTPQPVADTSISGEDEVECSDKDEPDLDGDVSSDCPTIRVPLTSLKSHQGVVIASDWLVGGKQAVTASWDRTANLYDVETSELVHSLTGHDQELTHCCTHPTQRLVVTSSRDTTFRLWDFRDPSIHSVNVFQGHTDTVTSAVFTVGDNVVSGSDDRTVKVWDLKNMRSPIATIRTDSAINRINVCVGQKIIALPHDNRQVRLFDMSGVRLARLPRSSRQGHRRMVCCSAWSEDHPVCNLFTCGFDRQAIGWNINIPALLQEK
UniProt Q9Y6M1: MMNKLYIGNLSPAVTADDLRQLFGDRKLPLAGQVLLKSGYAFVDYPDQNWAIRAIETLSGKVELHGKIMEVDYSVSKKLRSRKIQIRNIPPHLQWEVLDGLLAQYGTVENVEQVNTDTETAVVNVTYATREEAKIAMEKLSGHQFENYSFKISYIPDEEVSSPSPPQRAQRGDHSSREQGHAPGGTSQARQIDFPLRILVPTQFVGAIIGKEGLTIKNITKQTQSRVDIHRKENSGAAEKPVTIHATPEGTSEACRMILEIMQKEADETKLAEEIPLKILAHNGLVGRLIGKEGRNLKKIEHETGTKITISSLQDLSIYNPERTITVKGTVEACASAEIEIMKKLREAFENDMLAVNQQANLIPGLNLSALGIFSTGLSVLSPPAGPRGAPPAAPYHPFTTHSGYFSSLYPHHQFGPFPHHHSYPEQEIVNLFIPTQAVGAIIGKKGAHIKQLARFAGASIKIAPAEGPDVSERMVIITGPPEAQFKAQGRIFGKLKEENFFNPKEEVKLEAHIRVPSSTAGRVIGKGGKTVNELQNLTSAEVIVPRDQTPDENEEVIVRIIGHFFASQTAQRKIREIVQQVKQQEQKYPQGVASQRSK
UniProt Q9Y4X5: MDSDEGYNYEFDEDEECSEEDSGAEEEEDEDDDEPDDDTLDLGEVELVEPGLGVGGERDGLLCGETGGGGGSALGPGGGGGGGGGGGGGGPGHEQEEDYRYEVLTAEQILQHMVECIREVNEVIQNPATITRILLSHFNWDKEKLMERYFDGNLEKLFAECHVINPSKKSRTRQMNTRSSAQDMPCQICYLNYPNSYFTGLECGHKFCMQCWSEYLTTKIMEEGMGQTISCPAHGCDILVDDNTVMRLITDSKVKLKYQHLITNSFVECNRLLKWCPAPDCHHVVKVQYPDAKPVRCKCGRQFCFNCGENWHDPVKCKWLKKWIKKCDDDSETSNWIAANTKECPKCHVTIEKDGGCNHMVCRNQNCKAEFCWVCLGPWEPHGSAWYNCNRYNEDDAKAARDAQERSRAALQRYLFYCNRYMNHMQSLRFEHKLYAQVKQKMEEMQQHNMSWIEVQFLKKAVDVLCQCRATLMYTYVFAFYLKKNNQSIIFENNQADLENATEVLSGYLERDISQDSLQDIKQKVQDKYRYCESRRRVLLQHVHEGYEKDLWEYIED
UniProt Q9Y5Y2: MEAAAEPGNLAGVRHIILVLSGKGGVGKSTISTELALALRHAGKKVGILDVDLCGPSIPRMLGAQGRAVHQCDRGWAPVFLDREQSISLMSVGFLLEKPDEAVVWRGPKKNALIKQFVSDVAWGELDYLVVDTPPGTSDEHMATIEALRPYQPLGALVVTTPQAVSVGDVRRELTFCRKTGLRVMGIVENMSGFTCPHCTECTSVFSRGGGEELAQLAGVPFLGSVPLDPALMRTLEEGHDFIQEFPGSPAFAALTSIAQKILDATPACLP
UniProt Q9Y5X3: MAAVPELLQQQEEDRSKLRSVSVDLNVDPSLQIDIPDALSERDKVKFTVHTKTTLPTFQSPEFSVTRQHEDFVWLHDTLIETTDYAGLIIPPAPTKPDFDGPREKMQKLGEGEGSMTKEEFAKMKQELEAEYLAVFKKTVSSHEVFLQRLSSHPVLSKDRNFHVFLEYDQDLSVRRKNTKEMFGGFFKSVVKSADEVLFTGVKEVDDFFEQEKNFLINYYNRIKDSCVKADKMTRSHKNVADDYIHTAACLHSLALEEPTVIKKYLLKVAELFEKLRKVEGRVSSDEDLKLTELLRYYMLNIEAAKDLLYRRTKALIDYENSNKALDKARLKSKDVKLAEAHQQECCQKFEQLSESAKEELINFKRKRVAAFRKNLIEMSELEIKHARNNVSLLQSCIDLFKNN
UniProt Q9Y2Q3: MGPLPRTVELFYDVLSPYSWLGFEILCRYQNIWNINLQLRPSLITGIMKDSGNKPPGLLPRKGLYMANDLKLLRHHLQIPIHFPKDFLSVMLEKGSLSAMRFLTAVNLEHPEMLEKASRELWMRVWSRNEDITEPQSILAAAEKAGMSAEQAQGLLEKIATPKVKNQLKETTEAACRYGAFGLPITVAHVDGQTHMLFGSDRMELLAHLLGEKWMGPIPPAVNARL
UniProt Q9Y4W2: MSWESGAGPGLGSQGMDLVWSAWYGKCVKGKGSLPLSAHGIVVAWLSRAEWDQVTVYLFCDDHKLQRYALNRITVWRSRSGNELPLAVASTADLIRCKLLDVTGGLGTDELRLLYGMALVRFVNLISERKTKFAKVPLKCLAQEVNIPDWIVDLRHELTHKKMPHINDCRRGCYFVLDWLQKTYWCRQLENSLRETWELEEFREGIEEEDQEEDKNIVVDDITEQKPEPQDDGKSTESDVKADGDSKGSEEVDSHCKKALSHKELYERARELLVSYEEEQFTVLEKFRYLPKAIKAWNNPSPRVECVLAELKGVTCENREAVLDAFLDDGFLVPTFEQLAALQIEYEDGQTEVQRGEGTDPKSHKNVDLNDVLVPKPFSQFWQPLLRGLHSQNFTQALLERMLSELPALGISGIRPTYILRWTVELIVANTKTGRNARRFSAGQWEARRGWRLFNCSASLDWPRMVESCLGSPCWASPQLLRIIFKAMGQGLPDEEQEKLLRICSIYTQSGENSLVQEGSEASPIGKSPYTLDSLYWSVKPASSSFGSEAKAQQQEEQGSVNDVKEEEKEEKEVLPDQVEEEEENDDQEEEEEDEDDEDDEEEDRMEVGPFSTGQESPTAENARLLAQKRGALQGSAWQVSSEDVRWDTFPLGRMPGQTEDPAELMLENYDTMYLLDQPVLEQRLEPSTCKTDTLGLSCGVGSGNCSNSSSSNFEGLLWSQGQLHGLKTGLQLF
UniProt Q9Y6H1: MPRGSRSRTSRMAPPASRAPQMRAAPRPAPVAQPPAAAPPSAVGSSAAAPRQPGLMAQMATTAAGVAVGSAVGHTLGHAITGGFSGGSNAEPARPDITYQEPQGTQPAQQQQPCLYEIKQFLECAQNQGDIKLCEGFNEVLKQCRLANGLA
UniProt Q9Y4F1: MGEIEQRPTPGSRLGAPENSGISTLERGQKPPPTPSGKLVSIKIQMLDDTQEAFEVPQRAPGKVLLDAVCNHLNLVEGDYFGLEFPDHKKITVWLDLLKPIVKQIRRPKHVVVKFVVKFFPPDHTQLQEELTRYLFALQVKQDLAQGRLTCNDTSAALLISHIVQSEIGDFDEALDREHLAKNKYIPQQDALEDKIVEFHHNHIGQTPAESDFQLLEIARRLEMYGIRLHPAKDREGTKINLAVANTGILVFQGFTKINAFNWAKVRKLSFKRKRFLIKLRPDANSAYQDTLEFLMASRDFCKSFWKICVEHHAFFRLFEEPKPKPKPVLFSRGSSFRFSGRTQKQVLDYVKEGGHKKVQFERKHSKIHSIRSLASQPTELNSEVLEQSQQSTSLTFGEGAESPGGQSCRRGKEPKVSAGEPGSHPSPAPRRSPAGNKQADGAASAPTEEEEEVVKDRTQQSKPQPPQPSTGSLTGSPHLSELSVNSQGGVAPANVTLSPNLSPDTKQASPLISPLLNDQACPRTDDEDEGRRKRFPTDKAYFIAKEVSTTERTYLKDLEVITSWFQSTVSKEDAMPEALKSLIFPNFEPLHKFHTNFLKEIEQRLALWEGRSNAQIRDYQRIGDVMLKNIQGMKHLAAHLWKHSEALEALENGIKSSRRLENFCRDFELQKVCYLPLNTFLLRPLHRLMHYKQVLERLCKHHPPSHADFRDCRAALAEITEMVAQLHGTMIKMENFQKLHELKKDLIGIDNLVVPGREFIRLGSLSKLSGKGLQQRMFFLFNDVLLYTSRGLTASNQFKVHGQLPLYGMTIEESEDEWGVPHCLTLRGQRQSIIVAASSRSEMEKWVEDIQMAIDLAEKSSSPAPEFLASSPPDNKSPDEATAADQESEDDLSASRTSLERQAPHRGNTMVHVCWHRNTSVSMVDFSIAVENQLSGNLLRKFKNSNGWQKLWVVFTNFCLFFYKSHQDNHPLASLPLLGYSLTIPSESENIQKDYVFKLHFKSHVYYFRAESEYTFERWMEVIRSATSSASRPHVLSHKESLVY
UniProt Q9Y508: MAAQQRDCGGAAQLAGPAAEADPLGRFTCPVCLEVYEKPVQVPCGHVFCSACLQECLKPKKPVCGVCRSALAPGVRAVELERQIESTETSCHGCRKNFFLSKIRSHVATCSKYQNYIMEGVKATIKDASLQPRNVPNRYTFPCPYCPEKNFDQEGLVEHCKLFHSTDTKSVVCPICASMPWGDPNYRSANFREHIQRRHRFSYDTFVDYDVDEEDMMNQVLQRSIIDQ

Compound: CCc1cnccc1C(=O)Nc1cc2c(cc1F)NC(=O)CC2
Assay: melting temperature shift (DMSO Tm minus MBE1-treated Tm) in cellular thermal proteome profiling; higher = less thermal stabilization by MBE1 (negative = stabilized by MBE1)
Settings: A375

Target	melting temperature shift (MBE1 concentration: 100 nM)	melting temperature shift (MBE1 concentration: 1 uM)
UniProt Q9Y388	-0.598 °C	-0.922 °C
MRPS23 (UniProt Q9Y3D9)	-0.607 °C	-0.302 °C
UniProt Q9Y3L3	0.288 °C	0.201 °C
MAP4K5 (UniProt Q9Y4K4)	1.04 °C	0.598 °C
UniProt Q9Y5W7	0.128 °C	-0.415 °C
BZW2 (UniProt Q9Y6E2)	0.281 °C	0.244 °C
UBE2J1 (UniProt Q9Y385)	0.775 °C	-0.287 °C
DOPEY2 (UniProt Q9Y3R5)	–	1.21 °C
COQ6 (UniProt Q9Y2Z9)	-1.22 °C	0.318 °C
IKBKG (UniProt Q9Y6K9)	-2.03 °C	-0.574 °C
TRRAP (UniProt Q9Y4A5)	-1.45 °C	-0.572 °C
HECTD4 (UniProt Q9Y4D8)	2.94 °C	2.68 °C
THRAP3 (UniProt Q9Y2W1)	-1.02 °C	-1.2 °C
ROBO1 (UniProt Q9Y6N7)	–	-2.51 °C
SLC30A1 (UniProt Q9Y6M5)	–	-2.35 °C
UCHL5 (UniProt Q9Y5K5)	-0.616 °C	-0.292 °C
PRRC2C (UniProt Q9Y520)	–	-2.95 °C
UniProt Q9Y3A2	1.03 °C	0.0128 °C
GTF3C3 (UniProt Q9Y5Q9)	0.122 °C	-0.295 °C
USP16 (UniProt Q9Y5T5)	-0.781 °C	-0.115 °C
TEX264 (UniProt Q9Y6I9)	1.24 °C	0.495 °C
RBM7 (UniProt Q9Y580)	-0.851 °C	0.409 °C
UniProt Q9Y3C7	-0.476 °C	2.92 °C
UniProt Q9Y2K7	-0.141 °C	-0.0047 °C

Target	melting temperature shift (MBE1 concentration: 100 nM)	melting temperature shift (MBE1 concentration: 1 uM)
FBXO7 (UniProt Q9Y3I1)	-0.841 °C	-1.01 °C
FAM32A (UniProt Q9Y421)	–	2.19 °C
CEP170B (UniProt Q9Y4F5)	-0.692 °C	-0.8 °C
UniProt Q9Y2K5	-0.952 °C	0.813 °C
UniProt Q9Y5J7	0.315 °C	0.484 °C
NUB1 (UniProt Q9Y5A7)	-0.801 °C	0.173 °C
HEBP2 (UniProt Q9Y5Z4)	-0.101 °C	0.00611 °C
KNSTRN (UniProt Q9Y448)	-1.4 °C	-0.153 °C
NUMBL (UniProt Q9Y6R0)	-0.42 °C	1.36 °C
UniProt Q9Y3D5	-0.812 °C	-0.503 °C
GIT1 (UniProt Q9Y2X7)	-0.96 °C	-1.01 °C
AFG3L2 (UniProt Q9Y4W6)	-0.122 °C	0.33 °C
ARL2BP (UniProt Q9Y2Y0)	0.724 °C	-0.226 °C
LSM5 (UniProt Q9Y4Y9)	–	-3.39 °C
TIMM13 (UniProt Q9Y5L4)	-4 °C	-0.272 °C
SF3B6 (UniProt Q9Y3B4)	0.977 °C	0.824 °C
UniProt Q9Y2I8	-4.08 °C	0.159 °C
PAXBP1 (UniProt Q9Y5B6)	-1.06 °C	-0.34 °C
UniProt Q9Y2W6	0.287 °C	0.226 °C
UniProt Q9Y6J9	-0.615 °C	-0.884 °C
RBM19 (UniProt Q9Y4C8)	-0.128 °C	-0.433 °C
COMMD10 (UniProt Q9Y6G5)	-1.43 °C	0.44 °C
MRPL42 (UniProt Q9Y6G3)	-3.93 °C	1.16 °C
GTF3C5 (UniProt Q9Y5Q8)	-0.122 °C	-0.397 °C

Complete entries as entered above. Values in the order: melting temperature shift (MBE1 concentration: 100 nM)	melting temperature shift (MBE1 concentration: 1 uM)
ARL2BP (UniProt Q9Y2Y0) as listed: 0.724 °C	-0.226 °C
PAXBP1 (UniProt Q9Y5B6) as listed: -1.06 °C	-0.34 °C
UniProt Q9Y6J9 as listed: -0.615 °C	-0.884 °C
FAM32A (UniProt Q9Y421) as listed: –	2.19 °C

Next results.

Target	melting temperature shift (MBE1 concentration: 100 nM)	melting temperature shift (MBE1 concentration: 1 uM)
IGF2BP2 (UniProt Q9Y6M1)	-1 °C	0 °C
ARIH1 (UniProt Q9Y4X5)	-1.36 °C	-0.208 °C
AK6 (UniProt Q9Y3D8)	-0.594 °C	0.122 °C
SH3GLB1 (UniProt Q9Y371)	-0.221 °C	-0.141 °C
MRPS18B (UniProt Q9Y676)	-0.673 °C	0.348 °C
TRAPPC1 (UniProt Q9Y5R8)	-0.812 °C	-0.391 °C
RBM8A (UniProt Q9Y5S9)	-0.495 °C	-0.537 °C
TMED5 (UniProt Q9Y3A6)	-0.221 °C	-0.268 °C
UniProt Q9Y2U9	-0.593 °C	-0.146 °C
MRPS16 (UniProt Q9Y3D3)	0.0513 °C	0.0565 °C
ORC6 (UniProt Q9Y5N6)	-1.61 °C	-0.641 °C
MTCH2 (UniProt Q9Y6C9)	0.0244 °C	-0.14 °C
NUBP2 (UniProt Q9Y5Y2)	-1.94 °C	-2.82 °C
TMED7 (UniProt Q9Y3B3)	-0.806 °C	-0.415 °C
WASF2 (UniProt Q9Y6W5)	1.06 °C	0.0611 °C
SQRDL (UniProt Q9Y6N5)	-3.32 °C	1.66 °C
OAS3 (UniProt Q9Y6K5)	-0.475 °C	-0.364 °C
NOP58 (UniProt Q9Y2X3)	-0.758 °C	0.396 °C
FIS1 (UniProt Q9Y3D6)	-3.24 °C	0.0733 °C
UniProt Q9Y383	-0.708 °C	-0.83 °C
GMEB1 (UniProt Q9Y692)	-2.33 °C	-3.02 °C
NDUFAF1 (UniProt Q9Y375)	-1.39 °C	0.577 °C
KCTD3 (UniProt Q9Y597)	-1.82 °C	-3.79 °C
NDUFB9 (UniProt Q9Y6M9)	-1.42 °C	0.335 °C

Target	melting temperature shift (MBE1 concentration: 100 nM)	melting temperature shift (MBE1 concentration: 1 uM)
AMDHD2 (UniProt Q9Y303)	0.981 °C	-0.55 °C
UniProt Q9Y5S1	-0.899 °C	0.483 °C
POLDIP2 (UniProt Q9Y2S7)	1.21 °C	0.647 °C
UniProt Q9Y6E0	0.0134 °C	-0.268 °C
UniProt Q9Y2T7	0.537 °C	-2.12 °C
SNX5 (UniProt Q9Y5X3)	-0.36 °C	0.293 °C
CDC42BPB (UniProt Q9Y5S2)	0.177 °C	-0.0916 °C
GSTK1 (UniProt Q9Y2Q3)	-0.0122 °C	0.403 °C
GMPPB (UniProt Q9Y5P6)	-0.887 °C	0.437 °C
DMXL1 (UniProt Q9Y485)	0.208 °C	0.177 °C
DIS3 (UniProt Q9Y2L1)	-0.442 °C	-0.0705 °C
UniProt Q9Y5J6	-4.51 °C	1.59 °C
LSM2 (UniProt Q9Y333)	-5.27 °C	-6.21 °C
PLXND1 (UniProt Q9Y4D7)	1.89 °C	0.989 °C
PRKAB1 (UniProt Q9Y478)	-0.219 °C	0.696 °C
TLN2 (UniProt Q9Y4G6)	-0.00611 °C	-0.256 °C
UniProt Q9Y3E1	-6.03 °C	-2.84 °C
SRPRB (UniProt Q9Y5M8)	0.501 °C	0.372 °C
AP3M1 (UniProt Q9Y2T2)	1.37 °C	0.385 °C
WIPI2 (UniProt Q9Y4P8)	0.116 °C	-0.0672 °C
LAS1L (UniProt Q9Y4W2)	-0.0256 °C	-0.109 °C
PSAT1 (UniProt Q9Y617)	-0.659 °C	-0.617 °C
HBS1L (UniProt Q9Y450)	0.379 °C	0.403 °C
CD2AP (UniProt Q9Y5K6)	-0.55 °C	-0.758 °C

Target	melting temperature shift (MBE1 concentration: 100 nM)	melting temperature shift (MBE1 concentration: 1 uM)
CHCHD2 (UniProt Q9Y6H1)	-0.644 °C	-1.08 °C
DHRS7 (UniProt Q9Y394)	-1.1 °C	0.319 °C
UniProt Q9Y343	-1.85 °C	-1.36 °C
FARP1 (UniProt Q9Y4F1)	0.458 °C	0.769 °C
RNF114 (UniProt Q9Y508)	0.238 °C	1.96 °C
VPRBP (UniProt Q9Y4B6)	1 °C	0.647 °C
AAR2 (UniProt Q9Y312)	-1.94 °C	-0.169 °C
TCAF1 (UniProt Q9Y4C2)	-0.542 °C	-0.39 °C
MED16 (UniProt Q9Y2X0)	-0.476 °C	0.22 °C
KIF3A (UniProt Q9Y496)	1.31 °C	0.647 °C
MRPL11 (UniProt Q9Y3B7)	-2.37 °C	0.0448 °C
CFAP20 (UniProt Q9Y6A4)	-1.17 °C	0.0855 °C
RTCB (UniProt Q9Y3I0)	0.293 °C	0.385 °C
WBP11 (UniProt Q9Y2W2)	-1.83 °C	-2.35 °C
UniProt Q9Y4X4	-3.84 °C	-0.0977 °C
UniProt Q9Y2J4	1.15 °C	1.37 °C
UniProt Q9Y5W9	0.849 °C	0.421 °C
MAD1L1 (UniProt Q9Y6D9)	0.0705 °C	-0.179 °C
MEMO1 (UniProt Q9Y316)	-1.11 °C	0.134 °C
RABGAP1 (UniProt Q9Y3P9)	0.427 °C	0.488 °C
SAR1B (UniProt Q9Y6B6)	-1.1 °C	-1.33 °C
NFS1 (UniProt Q9Y697)	-0.577 °C	0.0201 °C
UniProt Q9Y2S2	0.629 °C	0.434 °C

Shown in CSV form: part of the list above.
Target,melting temperature shift (MBE1 concentration: 100 nM),melting temperature shift (MBE1 concentration: 1 uM)
RNF114 (UniProt Q9Y508),0.238 °C,1.96 °C
VPRBP (UniProt Q9Y4B6),1 °C,0.647 °C
